The assay deals with T1, scabies mite inactive serine protease paralogue SMIPP-S D1 (Sarcoptes scabiei).
T1 sequence: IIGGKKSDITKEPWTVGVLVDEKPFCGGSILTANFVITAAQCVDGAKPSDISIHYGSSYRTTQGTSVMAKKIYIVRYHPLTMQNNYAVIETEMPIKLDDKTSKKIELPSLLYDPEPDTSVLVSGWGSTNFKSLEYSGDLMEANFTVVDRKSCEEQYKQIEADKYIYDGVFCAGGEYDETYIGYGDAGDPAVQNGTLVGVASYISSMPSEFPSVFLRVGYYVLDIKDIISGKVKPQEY
The assay is described as follows: ELISA; both purified.

By UniProt entry, the sequences of proteins in these tests, tags left out. Residues count along the entry.
UniProt P48740, residues 20-699: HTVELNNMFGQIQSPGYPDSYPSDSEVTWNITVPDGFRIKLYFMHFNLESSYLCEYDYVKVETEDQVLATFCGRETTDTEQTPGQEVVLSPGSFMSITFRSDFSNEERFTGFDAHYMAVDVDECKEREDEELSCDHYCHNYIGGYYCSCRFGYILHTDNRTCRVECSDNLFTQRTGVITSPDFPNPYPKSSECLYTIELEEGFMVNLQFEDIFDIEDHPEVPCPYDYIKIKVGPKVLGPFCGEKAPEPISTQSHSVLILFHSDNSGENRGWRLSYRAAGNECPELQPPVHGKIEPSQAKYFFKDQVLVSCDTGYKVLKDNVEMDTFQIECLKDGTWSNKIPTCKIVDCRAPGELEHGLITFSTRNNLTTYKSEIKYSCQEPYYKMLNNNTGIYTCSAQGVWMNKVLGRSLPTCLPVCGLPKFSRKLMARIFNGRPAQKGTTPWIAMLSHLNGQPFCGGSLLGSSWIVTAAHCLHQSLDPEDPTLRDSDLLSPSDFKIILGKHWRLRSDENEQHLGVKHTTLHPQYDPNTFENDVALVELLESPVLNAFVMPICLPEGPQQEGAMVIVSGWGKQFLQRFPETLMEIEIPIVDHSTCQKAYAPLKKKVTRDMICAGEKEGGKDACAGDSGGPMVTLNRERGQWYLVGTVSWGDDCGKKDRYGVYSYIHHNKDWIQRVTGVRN
UniProt O00187, residues 16-686: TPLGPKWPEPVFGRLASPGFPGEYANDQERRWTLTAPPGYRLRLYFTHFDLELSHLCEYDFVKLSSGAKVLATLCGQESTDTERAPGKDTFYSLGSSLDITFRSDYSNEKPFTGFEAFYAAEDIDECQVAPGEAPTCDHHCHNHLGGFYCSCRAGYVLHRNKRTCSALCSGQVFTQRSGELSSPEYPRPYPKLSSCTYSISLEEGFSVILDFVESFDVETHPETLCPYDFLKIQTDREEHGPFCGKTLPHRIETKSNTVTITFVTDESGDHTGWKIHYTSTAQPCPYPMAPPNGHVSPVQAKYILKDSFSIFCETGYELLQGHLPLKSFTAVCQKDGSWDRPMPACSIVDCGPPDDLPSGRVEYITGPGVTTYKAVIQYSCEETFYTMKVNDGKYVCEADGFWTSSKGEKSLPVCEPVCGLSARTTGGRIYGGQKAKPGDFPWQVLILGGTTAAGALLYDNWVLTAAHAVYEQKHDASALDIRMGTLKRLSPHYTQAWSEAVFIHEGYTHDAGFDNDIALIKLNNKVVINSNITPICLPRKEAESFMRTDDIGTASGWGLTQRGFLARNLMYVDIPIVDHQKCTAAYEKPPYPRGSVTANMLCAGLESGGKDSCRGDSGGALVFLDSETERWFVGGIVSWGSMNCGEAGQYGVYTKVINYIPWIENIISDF

These are yes or no findings as the source states them, for the method shown.

With “recombinant MASP-1 (from UniProt P48740) (enzyme)”, the binding entry was “no binding (tested: 1 µg/ml)”.
To “recombinant MASP-2 (from UniProt O00187) (enzyme)” belongs “no binding (tested: 1 µg/ml)”.

These data come from article PMC4031079.
